The structures appear in SMILES notation. Some of the results follow. The main result of the screen is listed elsewhere. These columns were measured beside it and carry no call. The list favours compounds with an active or inconclusive main result. Words in brackets tell the shape of the fitted curve; partial curves, single points and poor fits give uncertain potencies.

The assay in a line: qHTS Assay for Lipid Storage Modulators in Drosophila S3 Cells.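 As to cell number change: cells counted by Cell Tracker Red CMTPX staining in the red channel.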 The following applies: BODIPY lipid droplet fluorescence, 18-24 h; for cell number change: measured here: cell count max response, cells fed with added oleic acid. An outline of the steps:
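Laser-scanning cytometry quantifies lipid droplet accumulation (500–530 nm total intensity; droplet/cell object ratio) in oleic acid-fed (400 uM added) Drosophila S3 cells treated with a concentration series. 20 uM Triacsin C defined 100% inhibition.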
For orientation: In qHTS, concentration-response curves come from the screen itself.

[1] abbreviates: measured here: cell number channel AC50, cells fed with added oleic acid.
[2] abbreviates: measured here: lipid fluorescence (Fed channel) AC50, cells fed with added oleic acid.

As a reminder, the AC50 is the midpoint of the concentration-response curve, whichever way the signal moves. A lower AC50 goes with greater potency. With `NC(=S)Nn1c(-c2ccccc2)nc2ccccc2c1=O`, the cell number change is -58.7%. The AC50 under setting [1] is 25.9 µM [falling, single point]. In addition, the AC50 under setting [2] was 23.1 µM [falling, single point].

Regarding `COc1ccc(N2CCN(C3CCCN(C(=O)c4cccc(C)n4)C3)CC2)cc1` (stereo not drawn), the cell number change turned out to be 11.9%. The AC50 under setting [1] was 4.11 µM [rising, single point].

With `O=C(Nc1ccc2oc(-c3ccccc3)nc2c1)C1CCCO1` (stereo not drawn), the cell number change came out at 24.6%. The AC50 under setting [2] was 0.651 µM [rising, full curve, poor fit].

On to `O=C(Nc1ccncc1)c1cc(-c2cccc(Br)c2)nc2ccccc12`, for which the AC50 under setting [2] was 18.4 µM [rising, single point].

As to `O=C(NCC1CC1)c1onc(CSc2ccncc2)c1C(=O)NCC1CC1`, the cell number change is 4.67%. Besides, under setting [2], the AC50 is 0.13 µM [rising, full curve, poor fit].

Consider `CC1(C2CC2)NC(=O)N(CC(=O)N2CCN(c3ccccc3Cl)CC2)C1=O` (stereo not drawn), for which the cell number change is -99.2%. The AC50 under setting [1] is 23.1 µM [falling, single point].

Consider `COC(=O)C1CCCN1S(=O)(=O)c1ccc([N+](=O)[O-])cc1` (stereo not drawn), for which the cell number change was 5.57%.

`NC(=NCc1ccco1)NC(=O)c1ccccc1`: the AC50 under setting [2] was 29.1 µM [falling, single point].

For `Cc1ccccc1N(CC(N)=O)S(C)(=O)=O`, the cell number change is -21.3%. The AC50 under setting [1] was 3.66 µM [falling, full curve, poor fit]. In addition, under setting [2], the AC50 was 3.66 µM [falling, full curve].

For the compound `Cc1cc(C(=O)COC(=O)Cc2ccc(Br)cc2)c(C)n1C`, the cell number change is -35.9%. Also, the AC50 under setting [1] was 29.1 µM [falling, single point]. Further, the AC50 under setting [2] is 2.91 µM [falling, partial curve].

On to `O=C(NC1CC1)C1CCN(C(=O)c2ccc(Cl)cc2Cl)CC1`, for which the cell number change came out at 21.3%. The AC50 under setting [2] was 6.51 µM [falling, single point].

For `COc1ccc(OCC(=O)Nc2ccccc2O)cc1`, the cell number change was -49.1%. Further, the AC50 under setting [1] was 3.26 µM [falling, full curve]. Under setting [2], the AC50 is 18.4 µM [falling, single point].

Take `COc1cc2ncnc(NCCCN3CCOCC3)c2cc1OC`: the cell number change stood at 47.8%. Moreover, under setting [1], the AC50 was 29.1 µM [rising, single point].

For the compound `O=C(NCC1CCCN(Cc2nccs2)C1)c1cccc2ccccc12` (stereo not drawn), the cell number change was determined as 24.3%.

As to `CCOC(=O)c1oc2cc(O)ccc2c(=O)c1-c1ccccc1OC`, the cell number change was -11.8%. In addition, the AC50 under setting [2] was 0.411 µM [falling, full curve, poor fit].

As for `CCOc1ccc(N(CC(=O)N2CCCC2)S(=O)(=O)c2ccc(Cl)cc2)cc1`, the cell number change was 21.8%. Further, under setting [2], the AC50 was 0.116 µM [rising, single point].

With `O=C(CSc1ncn[nH]1)Nc1ccc([N+](=O)[O-])cc1Br`, the cell number change turned out to be 2.12%.
